Reference: patent US12612627B2, “Compositions and methods for increasing sodium current in cardiac cells” (REGENTS OF THE UNIVERSITY OF MINNESOTA, priority 2020, dated 2026)
For at least one compound, name, drawing or mass did not settle the structure.

System: NF-κB
Assay: NF-κB expression and nuclear translocation in RL14 cells (Western blotting, confocal microscopy)
Type: cell-based, human
Conditions: RL14, deferoxamine six hours

CC(=O)N(O)CCCCCNC(=O)CCC(=O)N(O)CCCCCNC(=O)CCC(=O)N(O)CCCCCN [deferoxamine]
NF-κB protein level and translocation into the nucleus: increased
